Measured values published in the supplement of paper PMC6331611.
Several values for one entry are separate records, joined by “and”; a condition that tells them apart may be missing. Identical values can stand only once. ± gives the standard deviation of the averaged measurements. The full ranking holds about 1,600 compounds; the median of “normalized intracellular growth (luminescence, IQM-normalized) in RAW264.7 macrophages” is about 1, and the lowest 2% start at about 0.43. The list shows a part of the results.

Test system: Salmonella enterica serovar Typhimurium SL1344
Experiment: normalized intracellular growth (luminescence, IQM-normalized) in RAW264.7 macrophages (fraction of plate interquartile mean); higher = more bacterial growth (less inhibition)
Settings: 10 µM

SMILES	normalized intracellular growth (time point: T3 (3 h))	normalized intracellular growth (time point: Tfinal (~6 h))
CC(C)NCC(O)c1ccc(NS(C)(=O)=O)cc1 (centres undefined)	0.981 ± 0.028	0.998 ± 0.036
CC(=O)N1CCN(c2ccc(OCC3COC(Cn4ccnc4)(c4ccc(Cl)cc4Cl)O3)cc2)CC1 (centres undefined)	1.05 ± 0.021	1.09 ± 0.062
Cc1nc(C)c(Cl)c(O)c1Cl	0.942 ± 0.035	1.16 ± 0.1
CCN(CC)CCCC(C)Nc1c2ccc(Cl)cc2nc2ccc(OC)cc12 (centres undefined)	0.987 ± 0.061	1.07 ± 0.06
O=C(O)P(=O)(O)O	0.973 ± 0.067	1.04 ± 0.1
CCCCCCCCCCCCCCCC[N+](C)(C)CCN(Cc1ccc(OC)cc1)c1ncccn1	1.01 ± 0.098	0.784 ± 0.13
NS(=O)(=O)c1ccc(C(=O)O)cc1	1.006 ± 0.0098	0.964 ± 0.076
CCOc1ccccc1C(N)=O	1 ± 0.03	1.05 ± 0.1
CO[C@H]1C[C@@H]2CC[C@@H](C)[C@@](O)(O2)C(=O)C(=O)N2CCCC[C@H]2C(=O)O[C@H]([C@H](C)C[C@@H]2CC[C@@H](O)[C@H](OC)C2)CC(=O)[C@H](C)/C=C(\C)[C@@H](O)[C@@H](OC)C(=O)[C@H](C)C[C@H](C)/C=C/C=C/C=C/1C	1.01 ± 0.052	1.18 ± 0.48
CCN(CC)CCNC(=O)c1ccc(NC(C)=O)cc1	1.03 ± 0.065	1 ± 0.12
CN1C(=O)CC(C)(c2ccccc2)C1=O (centres undefined)	0.972 ± 0.072	1.02 ± 0.067
CNC[C@H](O)c1cccc(O)c1	0.759 ± 0.11	1.04 ± 0.07
CC(C)(CO)[C@@H](O)C(=O)NCCCO	1.06 ± 0.026	0.972 ± 0.058
CCOC(=O)[C@H](CCc1ccccc1)N[C@@H](C)C(=O)N1[C@H](C(=O)O)C[C@H]2CCCC[C@@H]21	1.09 ± 0.025	1.17 ± 0.26
CNC(=C[N+](=O)[O-])NCCSCc1ccc(CN(C)C)o1	1.13 ± 0.029	1.16 ± 0.23
COC(=O)[C@H]1[C@H]2C[C@@H]3c4[nH]c5cc(OC)ccc5c4CCN3C[C@H]2C[C@@H](OC(=O)c2cc(OC)c(OC)c(OC)c2)[C@@H]1OC	0.967 ± 0.039	0.924 ± 0.089
N[C@H](Cc1ccccc1)C(=O)O	1.15 ± 0.065	1.05 ± 0.087
CCCc1nc(C)c2c(O)nc(-c3cc(S(=O)(=O)N4CCN(CC)CC4)ccc3OCC)nn12	0.997 ± 0.027	0.899 ± 0.1
Cc1ncc([N+](=O)[O-])n1C	0.936 ± 0.053	0.98 ± 0.1
c1ccc2c(c1)CCCC2C1=NCCN1 (centres undefined)	1 ± 0.049	0.889 ± 0.055
C[C@@H](O)[C@H]1C(=O)N2C(C(=O)O)=C(SCCNC=N)C[C@H]12	1.04 ± 0.055	1.03 ± 0.09
CCCCCN(C)CCC(O)(P(=O)(O)O)P(=O)(O)O	0.886 ± 0.014	0.0897 ± 0.012
C[Se]CC[C@H](N)C(=O)O	0.991 ± 0.048	1.19 ± 0.051
C1N2CN3CN1CN(C2)C3	0.984 ± 0.028	1.08 ± 0.047

SMILES	normalized intracellular growth (time point: T3 (3 h))	normalized intracellular growth (time point: Tfinal (~6 h))
CC(C)c1nc(N(C)S(C)(=O)=O)nc(-c2ccc(F)cc2)c1/C=C/[C@@H](O)C[C@@H](O)CC(=O)O	0.938 ± 0.029	0.9595 ± 0.0089
Nc1ccc(S(=O)(=O)NC(=O)c2ccccc2)cc1	1.13 ± 0.037	1.08 ± 0.089
C[N+](C)(C)CCOP(=O)(O)OP(=O)([O-])OC[C@H]1O[C@@H](n2ccc(N)nc2=O)[C@H](O)[C@@H]1O	0.972 ± 0.082	1 ± 0.14
Cc1cccc(C)c1NC(=O)c1ccccc1C(=O)O	1.05 ± 0.04	0.872 ± 0.24
FCOC(C(F)(F)F)C(F)(F)F	1.01 ± 0.052	0.806 ± 0.18
CS(=O)(=O)c1ccc([C@@H](O)[C@@H](CF)NC(=O)C(Cl)Cl)cc1	1.27 ± 0.096	0.22 ± 0.17
CCN(CC)CCCC(C)Nc1ccnc2cc(Cl)ccc12 (centres undefined)	1 ± 0.025	1.1 ± 0.033
CC(C(=O)O)c1cccc(Oc2ccccc2)c1 (centres undefined)	0.958 ± 0.04	0.979 ± 0.052
O=C(O)CN(CCN(CC(=O)O)CC(=O)O)CC(=O)O.[Na+].[Na+].[Na+]	1.03 ± 0.021	1.54 ± 0.093
O=C1OC(c2ccc(O)cc2)(c2ccc(O)cc2)c2ccccc21	1.01 ± 0.065	0.809 ± 0.14
CCCc1ncc(C[n+]2ccccc2C)c(N)n1	0.981 ± 0.015	0.967 ± 0.048
CN(C)c1cnccn1	0.967 ± 0.046	0.904 ± 0.32
C=CCc1ccc(O)c(OC)c1	0.893 ± 0.035	0.976 ± 0.12
OC[C@@H](O)[C@@H](O)[C@H](O)[C@H](O)CO	1.08 ± 0.061	0.975 ± 0.39
CC(=O)OCC(=O)NCCCOc1cccc(CN2CCCCC2)c1	1.02 ± 0.032	1.24 ± 0.077
CCn1cc(C(=O)O)c(=O)c2cc(F)c(N3CCNCC3)nc21	0.916 ± 0.07	0.245 ± 0.036
c1ccc(CC2=NCCN2)cc1	1 ± 0.037	1.07 ± 0.033
OCCN1CCN(CCCN2c3ccccc3Sc3ccc(C(F)(F)F)cc32)CC1	1.22 ± 0.062	1.17 ± 0.047
CC(C)(Oc1ccc(CCNC(=O)c2ccc(Cl)cc2)cc1)C(=O)O	0.989 ± 0.017	1.14 ± 0.044
O=C(O)CCc1nc(-c2ccccc2)c(-c2ccccc2)o1	1.04 ± 0.12	1.17 ± 0.13
Clc1ccc2c(c1)C(N1CCNCC1)=Nc1ccccc1O2	1.03 ± 0.067	1.14 ± 0.082
O=C1c2ccccc2C(=O)C1c1ccccc1	0.975 ± 0.039	1.19 ± 0.098
CC[C@H]1OC(=O)[C@H](C)[C@@H](O[C@H]2C[C@@](C)(OC)[C@@H](O)[C@H](C)O2)[C@H](C)[C@@H](O[C@@H]2O[C@H](C)C[C@H](N(C)C)[C@H]2O)[C@](C)(O)C[C@@H](C)C(=O)[C@H](C)[C@@H](O)[C@]1(C)O	0.964 and 0.725	0.913 and 0.963
